From the supplement of paper PMC12067093, “Discovery and optimisation of a covalent ligand for TRIM25 and its application to targeted protein ubiquitination” (Chemical Science, 2025)
This is one part of the list.

The chains behind the UniProt entries cited, without tags or fusion partners. Where a name states a change or a piece, a line headed by the entry shows the natural chain unless it says otherwise.
UniProt P29084: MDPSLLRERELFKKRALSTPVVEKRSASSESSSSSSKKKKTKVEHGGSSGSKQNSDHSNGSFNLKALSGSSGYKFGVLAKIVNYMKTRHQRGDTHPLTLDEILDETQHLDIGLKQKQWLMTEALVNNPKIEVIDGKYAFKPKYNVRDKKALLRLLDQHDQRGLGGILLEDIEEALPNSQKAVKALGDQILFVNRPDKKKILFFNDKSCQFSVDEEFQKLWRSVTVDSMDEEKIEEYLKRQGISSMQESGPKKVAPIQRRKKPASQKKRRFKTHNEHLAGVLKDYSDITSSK
UniProt P09488: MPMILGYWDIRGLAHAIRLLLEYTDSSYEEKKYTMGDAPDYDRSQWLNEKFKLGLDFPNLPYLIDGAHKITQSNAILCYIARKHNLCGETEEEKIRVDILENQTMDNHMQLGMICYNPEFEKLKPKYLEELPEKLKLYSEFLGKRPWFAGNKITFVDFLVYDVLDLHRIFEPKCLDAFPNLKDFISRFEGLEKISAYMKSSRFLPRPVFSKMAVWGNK
UniProt P40939: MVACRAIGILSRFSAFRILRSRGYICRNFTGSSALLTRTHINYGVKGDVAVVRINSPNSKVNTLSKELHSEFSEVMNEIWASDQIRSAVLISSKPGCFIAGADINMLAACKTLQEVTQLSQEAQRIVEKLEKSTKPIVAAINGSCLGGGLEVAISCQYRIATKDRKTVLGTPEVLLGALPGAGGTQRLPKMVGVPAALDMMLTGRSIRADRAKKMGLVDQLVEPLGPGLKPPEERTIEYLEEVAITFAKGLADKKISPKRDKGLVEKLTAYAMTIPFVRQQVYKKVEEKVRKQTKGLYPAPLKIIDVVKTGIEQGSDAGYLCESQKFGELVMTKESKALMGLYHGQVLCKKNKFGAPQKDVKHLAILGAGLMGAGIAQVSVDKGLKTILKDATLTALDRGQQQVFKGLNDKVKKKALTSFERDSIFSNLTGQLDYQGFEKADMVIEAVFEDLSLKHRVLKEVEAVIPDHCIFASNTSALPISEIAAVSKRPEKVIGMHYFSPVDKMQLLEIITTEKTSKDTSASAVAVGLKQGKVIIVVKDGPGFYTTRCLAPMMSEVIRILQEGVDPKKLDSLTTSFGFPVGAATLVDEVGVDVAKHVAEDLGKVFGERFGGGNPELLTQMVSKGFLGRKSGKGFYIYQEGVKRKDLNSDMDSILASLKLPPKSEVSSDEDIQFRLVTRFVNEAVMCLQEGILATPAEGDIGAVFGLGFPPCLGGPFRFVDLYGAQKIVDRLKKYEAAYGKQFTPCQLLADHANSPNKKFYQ
UniProt O60443: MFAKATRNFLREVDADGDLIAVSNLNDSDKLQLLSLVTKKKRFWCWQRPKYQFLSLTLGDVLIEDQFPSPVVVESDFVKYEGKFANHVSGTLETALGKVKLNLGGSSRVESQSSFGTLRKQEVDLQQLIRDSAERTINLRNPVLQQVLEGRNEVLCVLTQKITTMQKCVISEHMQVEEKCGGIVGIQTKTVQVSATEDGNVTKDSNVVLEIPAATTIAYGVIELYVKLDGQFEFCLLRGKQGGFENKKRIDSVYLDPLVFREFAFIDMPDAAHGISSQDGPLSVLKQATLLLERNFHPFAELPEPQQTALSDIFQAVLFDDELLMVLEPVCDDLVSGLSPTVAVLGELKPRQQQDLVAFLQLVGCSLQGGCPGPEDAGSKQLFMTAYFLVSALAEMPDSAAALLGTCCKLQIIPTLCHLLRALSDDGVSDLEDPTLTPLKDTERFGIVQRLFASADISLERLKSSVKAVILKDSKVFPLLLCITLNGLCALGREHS
UniProt Q13322: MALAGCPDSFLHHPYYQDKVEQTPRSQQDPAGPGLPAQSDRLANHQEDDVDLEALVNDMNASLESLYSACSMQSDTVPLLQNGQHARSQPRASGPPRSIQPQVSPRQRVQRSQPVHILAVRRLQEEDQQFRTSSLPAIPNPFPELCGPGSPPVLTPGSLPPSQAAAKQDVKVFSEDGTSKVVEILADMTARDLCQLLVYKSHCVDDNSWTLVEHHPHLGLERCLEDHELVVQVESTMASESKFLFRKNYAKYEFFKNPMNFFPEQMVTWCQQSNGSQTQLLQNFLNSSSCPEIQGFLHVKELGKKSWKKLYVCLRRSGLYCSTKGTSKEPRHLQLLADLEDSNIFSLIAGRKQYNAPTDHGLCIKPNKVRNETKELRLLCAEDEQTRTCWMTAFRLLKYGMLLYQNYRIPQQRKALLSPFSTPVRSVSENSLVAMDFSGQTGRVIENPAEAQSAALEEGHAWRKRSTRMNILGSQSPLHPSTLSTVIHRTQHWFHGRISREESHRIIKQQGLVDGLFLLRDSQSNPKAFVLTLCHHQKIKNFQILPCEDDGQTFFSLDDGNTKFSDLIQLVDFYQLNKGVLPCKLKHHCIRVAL
UniProt Q6PII5: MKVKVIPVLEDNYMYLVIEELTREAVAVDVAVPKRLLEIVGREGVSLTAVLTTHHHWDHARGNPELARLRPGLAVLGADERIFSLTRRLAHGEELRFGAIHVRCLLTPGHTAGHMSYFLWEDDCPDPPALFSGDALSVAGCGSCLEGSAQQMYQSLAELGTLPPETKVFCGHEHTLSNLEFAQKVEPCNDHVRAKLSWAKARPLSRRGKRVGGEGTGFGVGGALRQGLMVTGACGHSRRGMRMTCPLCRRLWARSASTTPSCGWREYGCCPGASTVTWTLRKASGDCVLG
UniProt P46976: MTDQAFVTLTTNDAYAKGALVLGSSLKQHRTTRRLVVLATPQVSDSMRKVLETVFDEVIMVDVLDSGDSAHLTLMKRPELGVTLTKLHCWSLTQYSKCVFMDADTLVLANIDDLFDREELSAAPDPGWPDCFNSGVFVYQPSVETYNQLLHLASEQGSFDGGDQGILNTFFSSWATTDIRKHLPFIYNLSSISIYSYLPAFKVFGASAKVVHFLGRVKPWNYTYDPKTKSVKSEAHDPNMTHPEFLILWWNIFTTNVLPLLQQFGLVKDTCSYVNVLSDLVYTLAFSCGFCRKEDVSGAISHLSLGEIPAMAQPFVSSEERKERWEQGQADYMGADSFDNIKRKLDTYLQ
UniProt P36969, whole entry, looked up: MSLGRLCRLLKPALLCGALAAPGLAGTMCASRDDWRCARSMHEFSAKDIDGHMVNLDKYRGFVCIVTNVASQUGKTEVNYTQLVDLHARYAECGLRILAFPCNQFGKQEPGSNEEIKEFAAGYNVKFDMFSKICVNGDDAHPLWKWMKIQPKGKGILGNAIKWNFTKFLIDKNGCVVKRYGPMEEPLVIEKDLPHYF
UniProt P13807: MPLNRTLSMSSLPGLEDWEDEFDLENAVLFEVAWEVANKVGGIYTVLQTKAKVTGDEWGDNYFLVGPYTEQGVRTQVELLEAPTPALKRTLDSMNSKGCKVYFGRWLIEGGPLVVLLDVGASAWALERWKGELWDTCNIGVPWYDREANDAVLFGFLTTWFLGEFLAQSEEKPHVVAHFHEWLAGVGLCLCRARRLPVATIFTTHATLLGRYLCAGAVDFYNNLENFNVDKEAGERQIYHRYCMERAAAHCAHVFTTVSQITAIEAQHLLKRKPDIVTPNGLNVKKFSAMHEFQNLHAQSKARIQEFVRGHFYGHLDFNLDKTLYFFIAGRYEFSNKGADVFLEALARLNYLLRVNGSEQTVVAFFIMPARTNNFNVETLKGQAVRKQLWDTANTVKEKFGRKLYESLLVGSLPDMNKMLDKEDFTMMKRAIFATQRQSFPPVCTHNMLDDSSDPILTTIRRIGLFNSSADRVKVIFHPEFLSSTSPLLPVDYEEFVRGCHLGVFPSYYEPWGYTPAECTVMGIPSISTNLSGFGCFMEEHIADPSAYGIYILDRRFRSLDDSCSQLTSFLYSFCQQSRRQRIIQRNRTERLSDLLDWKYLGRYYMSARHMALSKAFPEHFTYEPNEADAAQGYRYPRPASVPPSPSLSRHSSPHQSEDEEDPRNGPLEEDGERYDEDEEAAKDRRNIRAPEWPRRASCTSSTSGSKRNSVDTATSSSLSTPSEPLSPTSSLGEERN
UniProt P49840: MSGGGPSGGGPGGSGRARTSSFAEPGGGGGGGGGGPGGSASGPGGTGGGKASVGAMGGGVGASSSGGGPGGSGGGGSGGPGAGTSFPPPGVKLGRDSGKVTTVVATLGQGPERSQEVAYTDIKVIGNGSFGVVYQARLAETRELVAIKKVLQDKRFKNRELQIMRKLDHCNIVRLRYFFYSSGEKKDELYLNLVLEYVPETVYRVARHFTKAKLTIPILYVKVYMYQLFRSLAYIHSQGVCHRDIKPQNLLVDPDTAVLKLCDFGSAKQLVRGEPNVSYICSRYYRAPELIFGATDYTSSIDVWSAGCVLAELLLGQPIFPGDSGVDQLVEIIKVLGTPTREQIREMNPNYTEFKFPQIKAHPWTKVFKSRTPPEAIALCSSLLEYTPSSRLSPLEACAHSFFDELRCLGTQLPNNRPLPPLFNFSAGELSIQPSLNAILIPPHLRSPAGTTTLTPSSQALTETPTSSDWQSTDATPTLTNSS
UniProt Q8WUA4: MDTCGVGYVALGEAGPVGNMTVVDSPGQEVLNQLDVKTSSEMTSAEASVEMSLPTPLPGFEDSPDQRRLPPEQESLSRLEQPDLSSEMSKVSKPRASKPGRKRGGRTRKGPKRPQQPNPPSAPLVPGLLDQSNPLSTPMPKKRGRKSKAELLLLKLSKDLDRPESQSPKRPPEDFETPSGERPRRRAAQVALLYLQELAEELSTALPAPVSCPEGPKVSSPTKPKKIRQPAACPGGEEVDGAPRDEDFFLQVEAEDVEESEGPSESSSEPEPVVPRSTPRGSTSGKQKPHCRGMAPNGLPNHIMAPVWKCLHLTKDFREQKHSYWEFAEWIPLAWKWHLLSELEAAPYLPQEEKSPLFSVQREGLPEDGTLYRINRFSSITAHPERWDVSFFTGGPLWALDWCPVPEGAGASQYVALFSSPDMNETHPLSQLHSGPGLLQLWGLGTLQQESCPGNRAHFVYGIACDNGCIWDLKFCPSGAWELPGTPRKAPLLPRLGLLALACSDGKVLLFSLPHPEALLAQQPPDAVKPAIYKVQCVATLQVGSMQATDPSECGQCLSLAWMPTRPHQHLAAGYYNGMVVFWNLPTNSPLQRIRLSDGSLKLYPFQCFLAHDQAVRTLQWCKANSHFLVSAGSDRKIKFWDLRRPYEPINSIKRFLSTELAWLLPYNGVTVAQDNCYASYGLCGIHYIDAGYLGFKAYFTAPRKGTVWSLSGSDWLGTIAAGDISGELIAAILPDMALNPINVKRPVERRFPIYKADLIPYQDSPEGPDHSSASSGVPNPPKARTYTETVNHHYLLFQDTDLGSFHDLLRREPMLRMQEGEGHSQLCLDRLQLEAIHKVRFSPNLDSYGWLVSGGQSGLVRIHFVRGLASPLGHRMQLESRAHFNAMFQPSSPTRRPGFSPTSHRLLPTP
UniProt Q14687: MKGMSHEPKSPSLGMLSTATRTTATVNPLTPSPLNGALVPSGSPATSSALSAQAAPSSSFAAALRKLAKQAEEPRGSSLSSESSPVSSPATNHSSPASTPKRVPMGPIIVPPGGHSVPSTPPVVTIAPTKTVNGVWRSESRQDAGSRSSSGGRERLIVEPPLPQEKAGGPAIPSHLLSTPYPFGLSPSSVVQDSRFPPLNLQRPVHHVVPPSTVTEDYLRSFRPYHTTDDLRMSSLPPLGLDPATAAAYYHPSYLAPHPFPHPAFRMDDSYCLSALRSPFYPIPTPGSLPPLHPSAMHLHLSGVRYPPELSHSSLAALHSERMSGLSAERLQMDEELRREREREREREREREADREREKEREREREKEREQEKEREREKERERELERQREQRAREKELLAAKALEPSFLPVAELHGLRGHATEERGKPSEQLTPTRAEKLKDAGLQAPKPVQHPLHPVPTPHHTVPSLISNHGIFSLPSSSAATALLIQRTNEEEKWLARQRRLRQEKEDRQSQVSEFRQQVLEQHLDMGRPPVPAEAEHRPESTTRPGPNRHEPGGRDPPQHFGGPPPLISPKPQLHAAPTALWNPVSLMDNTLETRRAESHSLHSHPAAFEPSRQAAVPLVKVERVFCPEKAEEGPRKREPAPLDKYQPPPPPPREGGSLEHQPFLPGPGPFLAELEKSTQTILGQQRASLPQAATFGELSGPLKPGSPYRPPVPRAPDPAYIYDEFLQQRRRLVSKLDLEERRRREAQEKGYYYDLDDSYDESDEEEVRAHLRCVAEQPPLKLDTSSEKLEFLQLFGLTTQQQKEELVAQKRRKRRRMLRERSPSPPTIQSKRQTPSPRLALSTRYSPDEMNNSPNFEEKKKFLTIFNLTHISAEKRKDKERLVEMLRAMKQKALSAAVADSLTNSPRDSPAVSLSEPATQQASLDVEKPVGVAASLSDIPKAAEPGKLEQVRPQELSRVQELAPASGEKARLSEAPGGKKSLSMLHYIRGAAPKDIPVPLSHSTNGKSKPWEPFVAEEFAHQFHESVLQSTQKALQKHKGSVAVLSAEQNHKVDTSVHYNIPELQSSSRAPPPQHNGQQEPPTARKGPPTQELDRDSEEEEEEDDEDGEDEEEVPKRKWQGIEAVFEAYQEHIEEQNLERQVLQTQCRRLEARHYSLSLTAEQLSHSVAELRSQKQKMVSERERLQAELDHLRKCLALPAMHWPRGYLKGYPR

The targets below were run with CC1Cc2ccccc2N1C(=O)C1CCCN(C1)C(=O)CCl (mixture of isomers) [TRIM25 ligand 11 (diastereomer mixture)] (assay: probe-labelled cysteine peptide fold change vs DMSO (competition) (log2 fold change); higher = less target engagement (more negative = stronger competition)). Conditions: 10 µM; THP-1; incubation time: 4 h.
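Further: competitive chemoproteomic profiling in live THP-1 cells with an iodoacetamide desthiobiotin (IA-DTB) probe, comparing probe-labelled peptide intensities in compound-treated cells against DMSO-treated controls.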

| Target | probe-labelled cysteine peptide fold change |
| --- | --- |
| GTF2E2_P29084_208_SCQFSVDEEFQK (UniProt P29084) | 0.0413 |
| GSPT1_P15170_381+387_GIEEEEILPGFILCDPNNLCHSGR (UniProt P15170) | 0.195 |
| H2AFY_O75367_276_FVIHCNSPVWGADKCEELLEK (UniProt O75367) | -0.321 |
| GSTM1_P09488_78_ITQSNAILCYIAR (UniProt P09488) | 0.021 |
| GRAMD1A_Q96CP6_456_RGPQAGGCVVDSEVLTQGIPYQDYFYTAHR (UniProt Q96CP6) | 0.107 |
| GSTCD_Q8NEC7_357_LLTTSTEQHPNLCEVPGVEEQSDPLFIGGPRPTMAK (UniProt Q8NEC7) | 0.0486 |
| GRAMD1A_Q96CP6_576_AHGDGPQHPDPDPCAR (UniProt Q96CP6) | 0.0876 |
| HADHA_P40939_349_ALMGLYHGQVLCKK (UniProt P40939) | -0.452 |
| GSDME_O60443_168_CVISEHMQVEEK (UniProt O60443) | 0.0837 |
| GTF3C4_Q9UKN8_129_TEVAECK (UniProt Q9UKN8) | -0.0676 |
| GRK2_P25098_439_RLGCLGR (UniProt P25098) | -0.00476 |
| GSPT1_P15170_453_QDQVCIAR (UniProt P15170) | -0.0211 |
| HAUS2_Q9NVX0_89_CHTLQSMNNHLEAVLK (UniProt Q9NVX0) | -0.189 |
| GRB10_Q13322_363_QYNAPTDHGLCIKPNK (UniProt Q13322) | 0.0377 |
| GPX1_P07203_115_CEVNGAGAHPLFAFLR (UniProt P07203) | -0.0227 |
| H2AFY_O75367_276_FVIHCNSPVWGADK (UniProt O75367) | 0.129 |
| GPT2_Q8TD30_265_VLCIINPGNPTGQVQSR (UniProt Q8TD30) | -0.07 |
| HAGHL_Q6PII5-2_248_AVPADVLEALCK (UniProt Q6PII5) | -0.171 |
| GUSB_P08236_396_TSHYPYAEEVMQMCDR (UniProt P08236) | 0.00387 |

| Target | probe-labelled cysteine peptide fold change |
| --- | --- |
| GSTM3_P21266_91_HNMCGETEEEK (UniProt P21266) | 0.046 |
| HADHA_P40939_97_PGCFIAGADINMLAACK (UniProt P40939) | -0.134 |
| GYG1_P46976_89_LHCWSLTQYSK (UniProt P46976) | 0.145 |
| GPX4_P36969_102_ILAFPCNQFGK (UniProt P36969) | 0.222 |
| HAUS4_Q9H6D7_213_LAEVLVGEQQQCQDAK (UniProt Q9H6D7) | -0.1 |
| GTF2I_P78347_475_MVDQLFCK (UniProt P78347) | 0.129 |
| GTF3C4_Q9UKN8_376_CVPLYHPYQK (UniProt Q9UKN8) | -0.0224 |
| H2AFY_O75367_297_NCLALADDK (UniProt O75367) | -0.0339 |
| GYS1_P13807_575_SLDDSCSQLTSFLYSFCQQSR (UniProt P13807) | -0.156 |
| HADHA_P40939_97+110_PGCFIAGADINMLAACK (UniProt P40939) | -0.0879 |
| GSN_P06396_331_SEDCFILDHGKDGK (UniProt P06396) | 0.104 |
| GTSF1_Q8WW33_71_AEISHHISSCDDR (UniProt Q8WW33) | 0.104 |
| GTF3C1_Q12789_1336_VCLAEVYQDK (UniProt Q12789) | 0.062 |
| GRAMD1B_Q3KR37_460_ASQESECYVIDAEVLTHDVPYHDYFYTINR (UniProt Q3KR37) | 0.00235 |
| GSK3A_P49840_398_LSPLEACAHSFFDELR (UniProt P49840) | -0.086 |
| GSTM3_P21266_119_LCYSSDHEK (UniProt P21266) | 0.138 |
| GTF3C2_Q8WUA4_608_LYPFQCFLAHDQAVR (UniProt Q8WUA4) | 0.0279 |
| GSE1_Q14687_777_CVAEQPPLK (UniProt Q14687) | -0.136 |

Same assay, conditions: 50 µM; THP-1; incubation time: 4 h

| Target | probe-labelled cysteine peptide fold change |
| --- | --- |
| GTF2E2_P29084_208_SCQFSVDEEFQK (UniProt P29084) | -0.1 |
| GSPT1_P15170_381+387_GIEEEEILPGFILCDPNNLCHSGR (UniProt P15170) | 0.00535 |
| H2AFY_O75367_276_FVIHCNSPVWGADKCEELLEK (UniProt O75367) | -0.0894 |
| GSTM1_P09488_78_ITQSNAILCYIAR (UniProt P09488) | 0.0511 |
| GRAMD1A_Q96CP6_456_RGPQAGGCVVDSEVLTQGIPYQDYFYTAHR (UniProt Q96CP6) | -0.123 |
| GSTCD_Q8NEC7_357_LLTTSTEQHPNLCEVPGVEEQSDPLFIGGPRPTMAK (UniProt Q8NEC7) | 0.0327 |
| GRAMD1A_Q96CP6_576_AHGDGPQHPDPDPCAR (UniProt Q96CP6) | -0.138 |
| HADHA_P40939_349_ALMGLYHGQVLCKK (UniProt P40939) | -0.365 |
| GSDME_O60443_168_CVISEHMQVEEK (UniProt O60443) | -0.0817 |
| GTF3C4_Q9UKN8_129_TEVAECK (UniProt Q9UKN8) | -0.0269 |
| GRK2_P25098_439_RLGCLGR (UniProt P25098) | -0.0629 |
| GSPT1_P15170_453_QDQVCIAR (UniProt P15170) | 0.0102 |
| HAUS2_Q9NVX0_89_CHTLQSMNNHLEAVLK (UniProt Q9NVX0) | -0.0693 |
| GRB10_Q13322_363_QYNAPTDHGLCIKPNK (UniProt Q13322) | -0.095 |
| GPX1_P07203_115_CEVNGAGAHPLFAFLR (UniProt P07203) | -0.0248 |
| H2AFY_O75367_276_FVIHCNSPVWGADK (UniProt O75367) | 0.0302 |
| GPT2_Q8TD30_265_VLCIINPGNPTGQVQSR (UniProt Q8TD30) | 0.00306 |
| HAGHL_Q6PII5-2_248_AVPADVLEALCK (UniProt Q6PII5) | -0.388 |
| GUSB_P08236_396_TSHYPYAEEVMQMCDR (UniProt P08236) | 0.183 |

| Target | probe-labelled cysteine peptide fold change |
| --- | --- |
| GSTM3_P21266_91_HNMCGETEEEK (UniProt P21266) | -0.0368 |
| HADHA_P40939_97_PGCFIAGADINMLAACK (UniProt P40939) | 0.16 |
| GYG1_P46976_89_LHCWSLTQYSK (UniProt P46976) | -0.217 |
| GPX4_P36969_102_ILAFPCNQFGK (UniProt P36969) | 0.329 |
| HAUS4_Q9H6D7_213_LAEVLVGEQQQCQDAK (UniProt Q9H6D7) | -0.181 |
| GTF2I_P78347_475_MVDQLFCK (UniProt P78347) | 0.168 |
| GTF3C4_Q9UKN8_376_CVPLYHPYQK (UniProt Q9UKN8) | 0.209 |
| H2AFY_O75367_297_NCLALADDK (UniProt O75367) | -0.0548 |
| GYS1_P13807_575_SLDDSCSQLTSFLYSFCQQSR (UniProt P13807) | 0.226 |
| HADHA_P40939_97+110_PGCFIAGADINMLAACK (UniProt P40939) | 0.186 |
| GSN_P06396_331_SEDCFILDHGKDGK (UniProt P06396) | 0.314 |
| GTSF1_Q8WW33_71_AEISHHISSCDDR (UniProt Q8WW33) | -0.55 |
| GTF3C1_Q12789_1336_VCLAEVYQDK (UniProt Q12789) | 0.0257 |
| GRAMD1B_Q3KR37_460_ASQESECYVIDAEVLTHDVPYHDYFYTINR (UniProt Q3KR37) | -0.073 |
| GSK3A_P49840_398_LSPLEACAHSFFDELR (UniProt P49840) | -0.0328 |
| GSTM3_P21266_119_LCYSSDHEK (UniProt P21266) | -0.147 |
| GTF3C2_Q8WUA4_608_LYPFQCFLAHDQAVR (UniProt Q8WUA4) | 0.109 |
| GSE1_Q14687_777_CVAEQPPLK (UniProt Q14687) | -0.234 |
